Results are given in words; binding and its absence hold for the method and conditions named. Binding seen in cells or lysates may run through a third protein. Some binding calls cover weakened binding; strength is not graded here. For some assays here: Tags and fused reporters may be left off the sequences shown.
Columns and labels:
[1] = molecular target: T1, FLAG-tagged human KLHL3 (human) (UniProt Q9UH77); assay: co-IP; Halo-tagged WNK1 co-expressed with FLAG-tagged KLHL3 or FOXO4 in HEK293T cells (left panel) and C2C12 cells (right panel); precipitating antibody and buffer not stated
T1 sequence: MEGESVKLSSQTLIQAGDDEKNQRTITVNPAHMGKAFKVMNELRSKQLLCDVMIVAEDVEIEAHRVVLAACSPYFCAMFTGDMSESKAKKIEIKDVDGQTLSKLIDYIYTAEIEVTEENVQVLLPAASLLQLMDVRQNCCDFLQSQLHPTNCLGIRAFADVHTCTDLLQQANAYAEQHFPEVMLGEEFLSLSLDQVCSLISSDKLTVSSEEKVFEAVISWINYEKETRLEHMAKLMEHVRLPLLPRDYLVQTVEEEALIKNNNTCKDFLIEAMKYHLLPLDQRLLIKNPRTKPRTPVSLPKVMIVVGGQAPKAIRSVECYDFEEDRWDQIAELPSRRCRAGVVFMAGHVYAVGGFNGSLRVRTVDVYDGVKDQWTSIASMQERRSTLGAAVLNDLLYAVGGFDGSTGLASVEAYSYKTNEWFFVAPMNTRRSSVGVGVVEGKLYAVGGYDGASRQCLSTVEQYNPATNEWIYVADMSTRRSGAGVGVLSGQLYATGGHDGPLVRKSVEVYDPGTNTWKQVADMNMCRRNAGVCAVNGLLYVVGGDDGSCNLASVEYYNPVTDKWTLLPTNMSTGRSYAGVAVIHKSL

Chains of the proteins cited; added tags and fusions are not shown.
UniProt P98177: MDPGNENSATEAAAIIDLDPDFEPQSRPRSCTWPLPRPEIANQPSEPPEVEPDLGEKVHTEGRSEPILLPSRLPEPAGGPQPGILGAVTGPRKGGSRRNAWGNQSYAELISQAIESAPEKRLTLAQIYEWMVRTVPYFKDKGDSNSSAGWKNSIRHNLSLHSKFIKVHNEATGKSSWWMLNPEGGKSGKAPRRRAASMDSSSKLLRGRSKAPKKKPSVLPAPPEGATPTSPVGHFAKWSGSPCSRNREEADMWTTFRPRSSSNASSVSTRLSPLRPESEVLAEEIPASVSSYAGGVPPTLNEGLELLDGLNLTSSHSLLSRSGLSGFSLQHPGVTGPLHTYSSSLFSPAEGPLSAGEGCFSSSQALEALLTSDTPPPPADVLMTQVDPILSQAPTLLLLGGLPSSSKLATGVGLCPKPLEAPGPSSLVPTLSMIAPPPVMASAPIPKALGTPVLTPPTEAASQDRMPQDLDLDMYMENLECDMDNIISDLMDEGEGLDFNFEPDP
UniProt Q9H4A3: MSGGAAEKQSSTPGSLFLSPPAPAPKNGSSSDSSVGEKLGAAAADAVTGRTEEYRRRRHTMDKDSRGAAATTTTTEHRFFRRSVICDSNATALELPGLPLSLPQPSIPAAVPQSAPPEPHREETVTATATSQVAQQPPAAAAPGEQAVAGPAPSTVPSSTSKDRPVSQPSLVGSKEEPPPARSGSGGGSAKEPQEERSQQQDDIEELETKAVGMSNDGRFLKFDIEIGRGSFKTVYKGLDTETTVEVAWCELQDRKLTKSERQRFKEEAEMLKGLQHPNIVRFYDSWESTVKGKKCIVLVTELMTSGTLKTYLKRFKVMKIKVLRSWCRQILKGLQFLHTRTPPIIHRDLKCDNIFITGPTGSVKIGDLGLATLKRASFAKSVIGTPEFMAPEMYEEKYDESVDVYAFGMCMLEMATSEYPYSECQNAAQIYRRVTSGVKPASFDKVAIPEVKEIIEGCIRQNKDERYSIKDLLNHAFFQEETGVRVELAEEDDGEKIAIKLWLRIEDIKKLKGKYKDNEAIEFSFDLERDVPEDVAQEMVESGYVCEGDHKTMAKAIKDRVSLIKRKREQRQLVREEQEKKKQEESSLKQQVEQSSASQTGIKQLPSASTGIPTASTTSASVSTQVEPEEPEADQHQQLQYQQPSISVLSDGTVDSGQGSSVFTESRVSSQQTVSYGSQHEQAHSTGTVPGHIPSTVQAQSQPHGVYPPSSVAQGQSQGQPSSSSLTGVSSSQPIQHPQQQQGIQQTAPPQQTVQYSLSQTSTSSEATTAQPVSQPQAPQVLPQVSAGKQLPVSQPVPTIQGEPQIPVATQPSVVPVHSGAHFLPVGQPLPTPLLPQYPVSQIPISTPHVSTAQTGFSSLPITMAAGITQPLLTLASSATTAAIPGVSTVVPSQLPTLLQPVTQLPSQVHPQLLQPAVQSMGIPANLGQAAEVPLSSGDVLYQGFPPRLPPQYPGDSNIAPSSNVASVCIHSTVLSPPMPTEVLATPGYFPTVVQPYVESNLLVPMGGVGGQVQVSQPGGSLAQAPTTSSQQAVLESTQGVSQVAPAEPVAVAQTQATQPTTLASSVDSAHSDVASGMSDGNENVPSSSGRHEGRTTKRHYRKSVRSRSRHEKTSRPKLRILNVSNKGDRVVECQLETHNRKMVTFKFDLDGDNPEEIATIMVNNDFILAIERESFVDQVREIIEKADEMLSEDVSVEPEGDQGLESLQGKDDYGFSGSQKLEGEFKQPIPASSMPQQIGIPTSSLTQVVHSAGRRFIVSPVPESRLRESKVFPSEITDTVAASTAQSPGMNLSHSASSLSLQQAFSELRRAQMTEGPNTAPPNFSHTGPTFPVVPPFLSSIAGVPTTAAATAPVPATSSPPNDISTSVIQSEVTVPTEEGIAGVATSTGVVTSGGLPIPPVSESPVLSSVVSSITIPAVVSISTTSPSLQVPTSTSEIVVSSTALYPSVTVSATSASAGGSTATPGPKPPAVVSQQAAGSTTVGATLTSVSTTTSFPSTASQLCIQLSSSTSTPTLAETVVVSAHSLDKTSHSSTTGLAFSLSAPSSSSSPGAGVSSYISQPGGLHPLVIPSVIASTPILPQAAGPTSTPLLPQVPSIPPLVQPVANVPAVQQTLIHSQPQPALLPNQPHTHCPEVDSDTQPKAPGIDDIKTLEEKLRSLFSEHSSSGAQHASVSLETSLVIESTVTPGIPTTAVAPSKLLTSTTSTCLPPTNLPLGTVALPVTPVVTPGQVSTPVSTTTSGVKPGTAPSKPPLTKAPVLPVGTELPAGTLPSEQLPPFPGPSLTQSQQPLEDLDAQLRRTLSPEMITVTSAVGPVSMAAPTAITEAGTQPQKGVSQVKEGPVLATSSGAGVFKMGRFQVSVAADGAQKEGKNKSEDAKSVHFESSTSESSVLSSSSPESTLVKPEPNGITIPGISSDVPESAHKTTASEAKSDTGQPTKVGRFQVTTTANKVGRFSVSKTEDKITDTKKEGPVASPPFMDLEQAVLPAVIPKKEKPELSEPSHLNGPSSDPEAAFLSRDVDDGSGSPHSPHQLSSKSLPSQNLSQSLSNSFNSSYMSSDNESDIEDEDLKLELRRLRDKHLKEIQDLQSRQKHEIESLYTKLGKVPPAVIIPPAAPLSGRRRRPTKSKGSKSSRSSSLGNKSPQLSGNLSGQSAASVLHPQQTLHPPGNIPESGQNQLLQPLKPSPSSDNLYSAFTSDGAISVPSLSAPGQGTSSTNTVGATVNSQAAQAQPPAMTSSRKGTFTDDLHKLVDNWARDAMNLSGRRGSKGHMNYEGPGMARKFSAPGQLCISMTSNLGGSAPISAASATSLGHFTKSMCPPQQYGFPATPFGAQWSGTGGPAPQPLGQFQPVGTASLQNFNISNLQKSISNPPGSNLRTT

[2] = molecular target: human FOXO4 (human) (UniProt P98177); assay: as above

Q: How did the binding [1] turn out when “Halo-tagged human WNK1 (from UniProt Q9H4A3 1-2382) (enzyme)” was run?
A: binds

Q: What about the binding [2] of the same substance?
A: no binding
